Data: patent US20060040992A1, “Antiinflammatory 3-arylthio-3-thiazolyl-alkylamines” (AstraZeneca AB, priority 2002, published 2006)
pIC50: −log10 of the molar value. Where a name gives a salt, the structure may show the parent alone. Some entries share one result that the patent states for a list of compounds.

Legend:
[1] = target: T1, nitric oxide synthase (Mus musculus, UniProt P29477); test: Screen 1: nitric oxide synthase inhibition, 3H-L-arginine to 3H-L-citrulline conversion, lysate of induced J774A-1 cells; assay type: biochemical; conditions: enzyme from IFNg/LPS-induced murine macrophage J774A-1 cell lysate; 1 hour at room temperature; read-out: IC50 (concentration of drug substance which gives 50% enzyme inhibition in the assay)
T1 construct: The reaction is started by adding 50 μl of cell lysate (prepared as above); endogenous in cells; host or cells: J774A-1 murine macrophage cell line, induced with LPS and IFN-gamma; crude cell lysate
Protocol: The activity of compounds of formula (I), or a pharmaceutically acceptable salt thereof, may be screened for nitric oxide synthase inhibiting activity by a procedure based on that of Förstermann et al., Eur. J. Pharm., 1992, 225, 161-165. Nitric oxide synthase converts ^3H-L-arginine into ^3H-L-citrulline which can be separated by cation exchange chromatography and quantified by liquid scintillation counting.
Enzyme is prepared, after induction, from the cultured murine macrophage cell line J774A-1 (obtained from the laboratories of the Imperial Cancer Research Fund). J774A-1 cells are cultured in Dulbeccos Modified Eagles Medium (DMM) supplemented with 10% foetal bovine serum, 4 mM L-glutamine and antibiotics (100 units/ml penicillin G, […] & […] amphotericin B). Cells are routinely grown in […] flasks is containing 35 ml medium kept at 37° C. and in a humidified atmosphere containing 5% CO2.
Nitric oxide synthase is produced by cells in response to interferon-g (IFNg) and lipopolysaccharide (LPS). The medium from confluent culture flasks is removed and replaced with 25 ml (per flask) of fresh medium containing 1 mg/ml LPS and 10 units/ml IFNg. After a period of 17-20 hours in culture, harvesting of cells is accomplished by scraping the cell sheet from the flask surface into the culture medium. […]
Labelled L-citrulline is separated from labelled L-arginine using Dowex AG-50W. […] After allowing the samples to dry the L-citruulline is quantified by scintillation counting.
In a typical experiment basal activity is 300 dpm per 75 μl sample which is increased to 1900 dpm in the reagent controls. […] Compounds are tested at a range of concentrations and from the inhibitions obtained IC50 values are calculated. […]

[2] = target: T2, iNOS enzyme (Homo sapiens, UniProt P35228); test: Screen 2: recombinant human NO synthase inhibition, L-[3H]citrulline formation; assay type: biochemical; conditions: recombinant human iNOS expressed in E. coli; 60 min pre-incubation with NADPH; 3 μM [3H]arginine; read-out: IC50 against the iNOS enzyme
T2 construct: made in house; host or cells: E. coli (lysate in Hepes buffer with co-factors, CHAPS)

[3] = target: T3, human form of induced nitric oxide synthase (Homo sapiens, UniProt P35228); test: Screen 3: nitrite accumulation in cytokine-induced DLD-1 cells (Griess reagent); assay type: cell-based; conditions: DLD-1 cells induced with gamma-IFN, TNF-alpha, IL-6, IL-1-beta; 5 hours with compound; read-out: IC50 (inhibition of nitrite accumulation)
T3 construct: Nitric oxide synthase was induced in cells by addition of medium containing human recombinant gamma-IFN; endogenous in cells; host or cells: DLD-1 human colorectal carcinoma cells (ECACC 90102540), induced with gamma-IFN, TNF-alpha, IL-6 and IL-1-beta

N#Cc1cc(Cl)cnc1S[C@H](C[C@H](N)CO)c1cncs1 [Example 1, 2-[[(1R,3S)-3-Amino-4-hydroxy-1-(5-thiazolyl)butyl]thiol]-5-chloro-3-pyridinecarbonitrile ethanedioate]
pIC50 [1]: > 5.00
pIC50 [2]: > 5.00
pIC50 [3]: > 4.00

NC(CO)CC(Sc1cc(C(F)(F)F)ccc1Cl)c1cncs1 [Example 3, (2S,4R)-2-Amino-4-[[2-chloro-5-(trifluoromethyl)phenyl]thio]-5-thiazolebutanol hydrochloride]
pIC50 [1]: > 5.00
pIC50 [2]: > 5.00
pIC50 [3]: > 4.00

N#Cc1ccc(C(F)(F)F)nc1S[C@H](C[C@H](N)CO)c1cncs1 [Example 4, 2-[[(1R,3S)-3-Amino-4-hydroxy-1-(5-thiazolyl)butyl]thio]-6-(trifluoromethyl)-3-pyridinecarbonitrile dihydrochloride]
pIC50 [1]: > 5.00
pIC50 [2]: > 5.00
pIC50 [3]: > 4.00
